PubChem BioAssay AID504744 – Drosophila RNAi Screening Center | 2011
In all, the deposit lists about 23,000 reagents; below is a random part of those that have a named target and a result. In the full data, 98 (0.43%) are marked active. 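Only hit calls are given; the phospho-dAkt signals, z-scores and hit direction were not deposited.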 A plus sign joins genes that one reagent is predicted to hit.

- Screen: 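Find genes whose loss alters insulin-driven dAkt phosphorylation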 (primary screen)
- System: Drosophila Kc167 cells
- Reagents: long dsRNA against Drosophila genes, 250 ng dsRNA per well of a 384-well plate
- Duration: 3 days of knock-down, then overnight serum-free starvation before stimulation
- Conditions: bovine insulin at 387 nM for 10 minutes after 12 h without serum
- Measurement: 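In-cell antibody fluorescence for phospho-dAkt in each well over DNA-dye signal, with log2 residuals expressed as z-scores adjusted for cell count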
- Rule for the call: 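Under insulin, a gene counts as a hit if the average z-score of two replicates lies above 2.5 or below -2.5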

After knock-down of CG15127 [DRSC05802], the screen gave inactive.
For CG15127 [DRSC06549], the entry reads inactive.
Against CG11498 [DRSC14315], the entry reads inactive.
Depletion of Cpr49Ab [DRSC05341] resulted in: inactive.
Depletion of Rsod [DRSC15424] gave: inactive.
Silencing of Letm1 [DRSC04476] came out at: inactive.
With knock-down of CG33155 + mRpL53 [DRSC05461], the screen gave inactive.
Knock-down of Jon99Fii [DRSC15430] came out at: inactive.
For Drice [DRSC16715], the values are inactive.
For Nup93-2 [DRSC16221], the entry reads inactive.
Silencing of mxt [DRSC00551] came out at: inactive.
Silencing of CG9632 [DRSC16528] gave: inactive.
Depletion of cGlr1 [DRSC06270] came out at: inactive.

Looked up above:
For “outcome”, Drice [DRSC16715] shows inactive
For “outcome”, CG15127 [DRSC05802] is entered as inactive
cGlr1 [DRSC06270], outcome = inactive
Nup93-2 [DRSC16221], outcome → inactive
Jon99Fii [DRSC15430], outcome: inactive
For “outcome”, CG33155 + mRpL53 [DRSC05461] reads inactive

More results follow.
Against Jhbp4 [DRSC14222], the entry reads inactive.
After knock-down of ms(3)76Cc [DRSC11071], the record shows inactive.
Against ms(3)76Cc [DRSC21630], the values are inactive.
Against tej [DRSC07219] the deposit lists inactive.
KLHL18 [DRSC15496] showed inactive.
For Spf30 [DRSC11976], the entry reads inactive.
caup [DRSC11334] showed inactive.
For CG9631 [DRSC14137], the entry reads inactive.
Against CycK [DRSC03714], the entry reads inactive.
Depletion of Mob3 [DRSC02791] resulted in: inactive.
For CG32971 [DRSC01372] the deposit lists inactive.
Against Cda4 [DRSC20623], the entry reads inactive.
With knock-down of Cda4 [DRSC20641] the results were inactive.
Against Cda4 [DRSC20642], the entry reads inactive.
HP5 [DRSC19773] showed inactive.
Silencing of dpn [DRSC07605] resulted in: inactive.
After knock-down of Duox [DRSC00571] the results were inactive.
Knock-down of CG3106 [DRSC18279] resulted in: inactive.
Depletion of CG33937 (retired record) [DRSC15148] gave: inactive.
Knock-down of LManI [DRSC02838] came out at: inactive.
CG10877 [DRSC14274] showed inactive.
BckdhB [DRSC21183] gave inactive.
Silencing of Ak6 [DRSC07274] gave: inactive.
With knock-down of ATPsynCF6L [DRSC08232] the results were inactive.
After knock-down of RpL40 [DRSC00782], the record shows inactive.
For SLIRP2 [DRSC16363], the values are inactive.
